Laboratory results reported in patent US9782484B2, “Method for producing a composite organic compound powder for medical use” (ACTIVUS PHARMA CO., LTD., priority 2008, dated 2017).
At least one structure is not confirmed: it was looked up by name or label, or the drawing left a doubt.

Assay: Average particle diameter of dried powder converted from BET specific surface area
Type: physicochemical
Conditions: starting organic compound powder, Table 1 and text
Protocol: According to the present invention, the “average particle diameter converted from the BET specific surface area” is calculated by converting a value of the specific surface area measured by the BET flow method (one-point type) to the diameter of a hypothetical spherical particle. The following formula 1 is a conversion formula for converting a value of the specific surface area to the diameter. Here, D is an average particle diameter, ρ is a solid density, S is a specific surface area, and α is a shape factor. α is 6 for spherical particles. D=α/(ρ·S) (formula 1)
The BET flow method is preferably a method for measuring the specific surface area by the following procedure. A mixed gas of nitrogen and helium is flowed into a cell in which a sample to be measured is placed, followed by cooling the sample with liquid nitrogen. Then, only nitrogen gas adsorbs to the surface of the sample. Subsequently, when the cell is returned to ordinary temperature, the desorption of the gas occurs. […]
Fine-pulverizing experiments are first described in each of which a carboxyvinyl polymer was added. The average particle diameter before and after fine-pulverizing for a dried powder was calculated by converting, by the above-described formula 1, the BET specific surface area measured using a BET type specific surface area analyzer (Macsorb model […], from Mountech Co., Ltd.). […]

CC(C)OC(=O)C(C)(C)Oc1ccc(C(=O)c2ccc(Cl)cc2)cc1 [fenofibrate]
Average Particle Diameter before Fine-pulverizing: 6,640 nm

O=C(Nc1cccc2c(=O)cc(-c3nnn[nH]3)oc12)c1ccc(OCCCCc2ccccc2)cc1 [pranlukast hydrate]
Average Particle Diameter before Fine-pulverizing: 1,088 nm
